Reference: publication doi:10.1101/2024.11.06.622243
No constants are given. Whether binding was seen depends on the method and setting. Binding seen in cells or lysates may run through a third protein. Tags and fused reporters may be left off the sequences shown.

Sequences of proteins named here, by UniProt entry; tags and fusion partners are left off.
UniProt P32745: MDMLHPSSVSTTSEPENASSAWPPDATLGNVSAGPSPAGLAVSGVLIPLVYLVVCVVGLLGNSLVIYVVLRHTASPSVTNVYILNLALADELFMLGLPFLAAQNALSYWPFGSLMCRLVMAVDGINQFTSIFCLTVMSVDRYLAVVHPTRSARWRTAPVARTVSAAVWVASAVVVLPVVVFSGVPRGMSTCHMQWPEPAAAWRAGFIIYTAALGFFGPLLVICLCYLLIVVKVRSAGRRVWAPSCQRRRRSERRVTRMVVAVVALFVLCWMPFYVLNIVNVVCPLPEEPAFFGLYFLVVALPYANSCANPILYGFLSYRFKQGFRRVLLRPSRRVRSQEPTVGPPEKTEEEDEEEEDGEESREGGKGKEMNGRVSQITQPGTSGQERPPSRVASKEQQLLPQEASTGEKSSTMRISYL

Target: T1, HA-Halo-MRAP2 (human) (UniProt Q96G30)
T1 sequence (chain, CA-Sulfo646 dye on the Halo tag): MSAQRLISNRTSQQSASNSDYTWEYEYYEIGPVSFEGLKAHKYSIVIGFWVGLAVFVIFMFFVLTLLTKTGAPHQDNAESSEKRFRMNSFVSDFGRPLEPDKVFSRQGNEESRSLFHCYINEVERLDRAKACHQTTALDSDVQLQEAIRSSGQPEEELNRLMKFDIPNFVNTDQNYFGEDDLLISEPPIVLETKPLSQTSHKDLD
Test: single-molecule pull-down (SiMPull); two-colour SiMPull: HA-Halo-tagged bait (CA-Sulfo646) and FLAG-CLIP-tagged prey (BC-DY547) co-expressed in HEK293 cells (300 ng Halo and 600 ng CLIP plasmid), labelled before lysis in 0.5% LMNG/0.05% CHS, bait immobilised by biotinylated anti-HA antibody, co-localisation and photobleaching steps by TIRF

binding: no binding
Substance: FLAG-CLIP-SSTR3 (from UniProt P32745 1-418) (receptor)
